Results reported in PMC4178188, “RIG-I Self-Oligomerization Is Either Dispensable or Very Transient for Signal Transduction”.

Target: T1, Flag-RIG-I (UniProt O95786)
T1 sequence (looked up, limits assumed): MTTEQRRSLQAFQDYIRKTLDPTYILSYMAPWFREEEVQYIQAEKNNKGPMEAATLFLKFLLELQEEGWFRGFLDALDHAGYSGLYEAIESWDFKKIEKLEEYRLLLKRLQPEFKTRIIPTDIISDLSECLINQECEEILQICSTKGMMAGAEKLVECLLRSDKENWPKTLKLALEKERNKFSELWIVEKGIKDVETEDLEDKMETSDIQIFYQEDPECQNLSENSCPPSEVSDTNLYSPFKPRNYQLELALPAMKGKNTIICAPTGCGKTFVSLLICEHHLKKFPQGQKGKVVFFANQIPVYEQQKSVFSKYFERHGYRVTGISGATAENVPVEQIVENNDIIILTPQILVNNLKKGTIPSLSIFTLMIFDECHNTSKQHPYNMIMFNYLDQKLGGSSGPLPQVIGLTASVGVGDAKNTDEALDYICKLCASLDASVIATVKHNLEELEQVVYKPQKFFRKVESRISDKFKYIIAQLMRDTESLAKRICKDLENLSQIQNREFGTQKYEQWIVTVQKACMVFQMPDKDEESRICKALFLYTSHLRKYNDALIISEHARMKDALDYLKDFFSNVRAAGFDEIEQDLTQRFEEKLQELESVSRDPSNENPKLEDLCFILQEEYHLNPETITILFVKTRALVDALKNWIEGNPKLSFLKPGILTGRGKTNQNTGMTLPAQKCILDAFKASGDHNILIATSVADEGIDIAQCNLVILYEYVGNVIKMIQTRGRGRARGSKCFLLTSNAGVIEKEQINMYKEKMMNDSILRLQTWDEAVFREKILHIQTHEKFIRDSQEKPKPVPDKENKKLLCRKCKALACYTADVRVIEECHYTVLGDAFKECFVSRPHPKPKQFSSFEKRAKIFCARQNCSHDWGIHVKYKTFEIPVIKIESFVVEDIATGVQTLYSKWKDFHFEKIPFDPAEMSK
Assay: pull-down (anti-Flag IP of transfected RNA, RT-PCR)
Details: RNA transfected in Huh7.5 cells, harvest 6 h; 5'-triphosphate; SEC-MALLS: 37 mM RIG-I, 2 mM ATP analogue, S200 column; protein in a lysate after overexpression; protein details: Flag

## GGACCAAACAAAGUUGGGUAAGGAUAGAUCAAUCAAUGAUCAUAUUCUAGUACACUUGAAUUC [Measles leader 5'ppp-RNA (MeV-L)]
  binding result: binds

The exact form of at least one protein or probe is not confirmed. Where cells or extracts were used, other partners may take part. Where a protein sequence is shown, tags need not be part of it.
